Measurements from the supplement of paper PMC4604168 (melanoma cell lines).
The list shows a part of the results. Many values rest on one well or one pass, so single values are uncertain.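 The apoptosis fraction was the count of cleaved-PARP antibody-stained nuclei relative to all DNA-stained nuclei, imaged in 1,536-well plates. Screening doses were set so most cells survived, and baseline and induced cleaved-PARP levels vary greatly across cell lines.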

Legend:
Assay in all cases: cleaved PARP positive nuclei fraction relative to DMSO control; melanoma cells; higher = more apoptosis
Details in all cases: library dose: low library concentration; 72 h
[1] = system: 501Mel
[2] = system: A101D
[3] = system: A2058
[4] = system: A375
[5] = system: C32
[6] = system: CBRC008 (line from a melanoma biopsy)
[7] = system: CBRC013 (line from a melanoma biopsy)
[8] = system: CBRC014 (line from a melanoma biopsy)
[9] = system: CBRC016 (line from a melanoma biopsy)
[10] = system: CBRC017 (line from a melanoma biopsy)
[11] = system: COLO792
[12] = system: COLO800
[13] = system: COLO829
[14] = system: G361
[15] = system: IPC-298
[16] = system: IST-MEL1
[17] = system: LB2518-MEL
[18] = system: LOXIMVI
[19] = system: MEL-HO

SMILES	cleaved PARP positive nuclei fraction [1]	cleaved PARP positive nuclei fraction [2]	cleaved PARP positive nuclei fraction [3]	cleaved PARP positive nuclei fraction [4]	cleaved PARP positive nuclei fraction [5]	cleaved PARP positive nuclei fraction [6]	cleaved PARP positive nuclei fraction [7]	cleaved PARP positive nuclei fraction [8]	cleaved PARP positive nuclei fraction [9]	cleaved PARP positive nuclei fraction [10]	cleaved PARP positive nuclei fraction [11]	cleaved PARP positive nuclei fraction [12]	cleaved PARP positive nuclei fraction [13]	cleaved PARP positive nuclei fraction [14]	cleaved PARP positive nuclei fraction [15]	cleaved PARP positive nuclei fraction [16]	cleaved PARP positive nuclei fraction [17]	cleaved PARP positive nuclei fraction [18]	cleaved PARP positive nuclei fraction [19]
C=CCNC1=C2C[C@@H](C)C[C@H](OC)[C@H](O)[C@@H](C)/C=C(\C)[C@H](OC(N)=O)[C@@H](OC)/C=C\C=C(/C)C(=O)NC(=CC1=O)C2=O [Tanespimycin] + CN(C)S(=O)(=O)c1ccc2c(c1)/C(=C/c1cc3c([nH]1)CCCC3)C(=O)N2 [SU6656] (first compound 0.002 µM, partner dose 0.4 µM)	295%	755%	180%	70.1%	858%	80.7%	140%	102%	240%	96.2%	127%	85.7%	216%	119%	92.9%	49.2%	47.8%	31.1%	34.4%
C[C@]1(c2nc3c(C(N)=O)cccc3[nH]2)CCCN1 [Veliparib] + CN(C)S(=O)(=O)c1ccc2c(c1)/C(=C/c1cc3c([nH]1)CCCC3)C(=O)N2 [SU6656] (first compound 1.4 µM, partner dose 0.4 µM)	134%	292%	122%	254%	134%	131%	183%	109%	51.1%	110%	45.1%	87.8%	54.5%	107%	46%	33.3%	104%	198%	207%
Cc1ccc(NC(=O)c2cccc(N(C)C)c2)cc1NC(=O)c1ccc(O)cc1 + C[C@@H]1CCN(C(=O)CC#N)C[C@@H]1N(C)c1ncnc2[nH]ccc12 [CP690550] (first compound 2 µM, partner dose 1 µM)	285%	235%	55.3%	165%	191%	104%	72.1%	102%	116%	110%	172%	69.5%	79%	108%	107%	103%	95.5%	74.2%	68.4%
C[C@@H]1CCN(C(=O)CC#N)C[C@@H]1N(C)c1ncnc2[nH]ccc12 + Cn1cncc1[C@@](N)(c1ccc(Cl)cc1)c1ccc2c(c1)c(-c1cccc(Cl)c1)cc(=O)n2C [tipifarnib] (first compound 1 µM, partner dose 0.01 µM)	241%	78.8%	68%	96.5%	47.7%	215%	144%	85.1%	195%	102%	108%	73.5%	81.6%	95.7%	50.4%	46.4%	92.4%	46.8%	60.3%
NC(=O)Nc1cc(-c2cccc(F)c2)sc1C(=O)N[C@H]1CCCNC1 + Cc1cc(N2CCOCC2)cc2[nH]c(-c3c(NC[C@@H](O)c4cccc(Cl)c4)cc[nH]c3=O)nc12 [BMS536924] (first compound 0.02 µM, partner dose 0.2 µM)	277%	44.7%	63.7%	1260%	208%	391%	189%	98.1%	68.8%	107%	125%	387%	102%	120%	99%	137%	329%	158%	142%
OCc1c[nH]c2ccccc12 [Indole-3-carbinol] + OCCn1cc(-c2cnc3nnn(Cc4ccc5ncccc5c4)c3n2)cn1 [PF04217903] (first compound 0.8 µM, partner dose 1 µM)	73.5%	250%	134%	135%	59.8%	131%	104%	174%	110%	108%	302%	32.8%	86.8%	52.4%	41.7%	143%	57.1%	101%	145%
CC1(C)NC(=O)N(c2ccc([N+](=O)[O-])c(C(F)(F)F)c2)C1=O [nilutamide] + CC(C)(C)c1cnc(CSc2cnc(NC(=O)C3CCNCC3)s2)o1 [SNS-032] (first compound 1 µM, partner dose 0.01 µM)	80.3%	44%	104%	16.8%	111%	135%	84.1%	101%	183%	76.2%	93%	100%	97.1%	144%	86%	104%	91.6%	111%	65.2%
C=CCNC1=C2C[C@@H](C)C[C@H](OC)[C@H](O)[C@@H](C)/C=C(\C)[C@H](OC(N)=O)[C@@H](OC)/C=C\C=C(/C)C(=O)NC(=CC1=O)C2=O [Tanespimycin] + COc1cc(Nc2ncc(F)c(Nc3ccc4c(n3)NC(=O)C(C)(C)O4)n2)cc(OC)c1OC [Tamatinib] (first compound 0.002 µM, partner dose 0.4 µM)	179%	524%	259%	146%	81.7%	76.3%	185%	551%	131%	152%	214%	37.4%	146%	60.3%	56.9%	102%	194%	79.9%	189%
Cn1nnc2c(C(N)=O)ncn2c1=O [temozolomide] + Cc1ccc(NC(=O)c2cccc(N(C)C)c2)cc1NC(=O)c1ccc(O)cc1 [ZM336372] (first compound 2 µM, partner dose 2 µM)	91.4%	89.1%	130%	47.5%	85.6%	85.7%	91.2%	137%	85.2%	99.9%	67.5%	72.6%	59.7%	125%	80%	101%	52.2%	72.3%	34.6%
C#Cc1cccc(Nc2ncnc3cc(OCCOC)c(OCCOC)cc23)c1 [erlotinib] + CO[C@@H]1[C@H](N(C)C(=O)c2ccccc2)C[C@H]2O[C@]1(C)n1c3ccccc3c3c4c(c5c6ccccc6n2c5c31)C(=O)NC4 [Midostaurin] (first compound 0.8 µM, partner dose 0.08 µM)	69.2%	182%	104%	122%	58.9%	241%	141%	99.5%	35.5%	120%	47%	96.2%	118%	59.2%	49.2%	108%	89.3%	114%	76.5%
OCCn1cc(-c2cnc3nnn(Cc4ccc5ncccc5c4)c3n2)cn1 + O=C(Nc1cccc(Cl)c1)Nc1ncc(CCNc2ncnc3ccsc23)s1 [SNS314] (first compound 1 µM, partner dose 0.0008 µM)	370%	33.4%	90%	41.9%	105%	33.6%	81.7%	71.8%	27%	70%	77.2%	83.4%	94%	105%	58.8%	66.2%	101%	56.5%	67%
Cc1ccc(NC(=O)c2cccc(N(C)C)c2)cc1NC(=O)c1ccc(O)cc1 + NCC(=O)Nc1ccc(-n2nc(C(F)(F)F)cc2-c2ccc3c(ccc4ccccc43)c2)cc1 [OSU03012] (first compound 2 µM, partner dose 1 µM)	192%	114%	184%	5530%	69.6%	170%	225%	113%	84.5%	101%	113%	266%	149%	98.5%	139%	70.3%	151%	22%	18.6%
C=CCn1c(=O)c2cnc(Nc3ccc(N4CCN(C)CC4)cc3)nc2n1-c1cccc(C(C)(C)O)n1 + Cn1cncc1[C@@](N)(c1ccc(Cl)cc1)c1ccc2c(c1)c(-c1cccc(Cl)c1)cc(=O)n2C [tipifarnib] (first compound 0.02 µM, partner dose 0.01 µM)	114%	57.8%	120%	678%	59.5%	226%	108%	123%	117%	143%	82%	62.5%	68.6%	137%	137%	152%	62.8%	73.5%	92.9%
C=CCNC1=C2C[C@@H](C)C[C@H](OC)[C@H](O)[C@@H](C)/C=C(\C)[C@H](OC(N)=O)[C@@H](OC)/C=C\C=C(/C)C(=O)NC(=CC1=O)C2=O [Tanespimycin] + CN(NC(=O)CC(=O)NN(C)C(=S)c1ccccc1)C(=S)c1ccccc1 [STA4783] (first compound 0.002 µM, partner dose 0.006 µM)	181%	49.8%	117%	3100%	289%	1690%	281%	467%	175%	138%	164%	68.6%	108%	454%	178%	85.2%	68.5%	25.7%	134%
Nc1cccc2c1CN(C1CCC(=O)NC1=O)C2=O (stereo not drawn) [lenalidomide] + C=CCn1c(=O)c2cnc(Nc3ccc(N4CCN(C)CC4)cc3)nc2n1-c1cccc(C(C)(C)O)n1 [MK1775] (first compound 1 µM, partner dose 0.02 µM)	108%	86.8%	29.9%	182%	85.3%	428%	112%	161%	168%	80.3%	117%	30.1%	56.1%	57.6%	42.7%	67.3%	93.1%	13.2%	46.9%
O=C(Nc1cccc(Cl)c1)Nc1ncc(CCNc2ncnc3ccsc23)s1 + COc1cc2c(Oc3ccc4[nH]c(C)cc4c3F)ncnc2cc1OCCCN1CCCC1 [cediranib] (first compound 0.0008 µM, partner dose 0.4 µM)	73%	77.7%	85.4%	90.2%	206%	53%	167%	57.1%	93.4%	73.4%	159%	134%	126%	103%	21.7%	104%	89.8%	61.2%	125%
Cn1nnc2c(C(N)=O)ncn2c1=O [temozolomide] + NC(=O)Nc1cc(-c2cccc(F)c2)sc1C(=O)N[C@H]1CCCNC1 [AZD7762] (first compound 2 µM, partner dose 0.02 µM)	73%	153%	471%	133%	59.6%	97.7%	88.2%	131%	120%	88%	95.3%	106%	121%	49.4%	95.5%	60.2%	69.3%	233%	64.8%

In another format: results already given
SMILES | cleaved PARP positive nuclei fraction [1] | cleaved PARP positive nuclei fraction [2] | cleaved PARP positive nuclei fraction [3] | cleaved PARP positive nuclei fraction [4] | cleaved PARP positive nuclei fraction [5] | cleaved PARP positive nuclei fraction [6] | cleaved PARP positive nuclei fraction [7] | cleaved PARP positive nuclei fraction [8] | cleaved PARP positive nuclei fraction [9] | cleaved PARP positive nuclei fraction [10] | cleaved PARP positive nuclei fraction [11] | cleaved PARP positive nuclei fraction [12] | cleaved PARP positive nuclei fraction [13] | cleaved PARP positive nuclei fraction [14] | cleaved PARP positive nuclei fraction [15] | cleaved PARP positive nuclei fraction [16] | cleaved PARP positive nuclei fraction [17] | cleaved PARP positive nuclei fraction [18] | cleaved PARP positive nuclei fraction [19]
C#Cc1cccc(Nc2ncnc3cc(OCCOC)c(OCCOC)cc23)c1 [erlotinib] + CO[C@@H]1[C@H](N(C)C(=O)c2ccccc2)C[C@H]2O[C@]1(C)n1c3ccccc3c3c4c(c5c6ccccc6n2c5c31)C(=O)NC4 [Midostaurin] (first compound 0.8 µM, partner dose 0.08 µM) | 69.2% | 182% | 104% | 122% | 58.9% | 241% | 141% | 99.5% | 35.5% | 120% | 47% | 96.2% | 118% | 59.2% | 49.2% | 108% | 89.3% | 114% | 76.5%
OCCn1cc(-c2cnc3nnn(Cc4ccc5ncccc5c4)c3n2)cn1 + O=C(Nc1cccc(Cl)c1)Nc1ncc(CCNc2ncnc3ccsc23)s1 [SNS314] (first compound 1 µM, partner dose 0.0008 µM) | 370% | 33.4% | 90% | 41.9% | 105% | 33.6% | 81.7% | 71.8% | 27% | 70% | 77.2% | 83.4% | 94% | 105% | 58.8% | 66.2% | 101% | 56.5% | 67%
Cc1ccc(NC(=O)c2cccc(N(C)C)c2)cc1NC(=O)c1ccc(O)cc1 + NCC(=O)Nc1ccc(-n2nc(C(F)(F)F)cc2-c2ccc3c(ccc4ccccc43)c2)cc1 [OSU03012] (first compound 2 µM, partner dose 1 µM) | 192% | 114% | 184% | 5530% | 69.6% | 170% | 225% | 113% | 84.5% | 101% | 113% | 266% | 149% | 98.5% | 139% | 70.3% | 151% | 22% | 18.6%
C=CCn1c(=O)c2cnc(Nc3ccc(N4CCN(C)CC4)cc3)nc2n1-c1cccc(C(C)(C)O)n1 + Cn1cncc1[C@@](N)(c1ccc(Cl)cc1)c1ccc2c(c1)c(-c1cccc(Cl)c1)cc(=O)n2C [tipifarnib] (first compound 0.02 µM, partner dose 0.01 µM) | 114% | 57.8% | 120% | 678% | 59.5% | 226% | 108% | 123% | 117% | 143% | 82% | 62.5% | 68.6% | 137% | 137% | 152% | 62.8% | 73.5% | 92.9%
